# Measurements published in PubChem BioAssay AID540276 (National Center for Advancing Translational Sciences (NCATS), 2011).
# Where “and” joins values, the source holds several entries; their conditions need not be identical. Equal entries are not always repeated. About 5,400 (1.8%) of roughly 300,000 compounds were called active. Inconclusive means that the source gave no clear call. Such entries were picked first, then a sample of the others. Calls come from the whole dose curve; tested in HEK293 cells. A potency beside an inconclusive call is a rough fit, not a confirmed value.
# Assay: qHTS for inhibitors of binding or entry into cells for Marburg Virus
# Settings: Marburg virus pseudotyped entry inhibition, cell reporter; series mostly up to 37.8 µM
# Potency is the fitted concentration of half-maximal effect.
row,Structure (SMILES),Potency
1,O=C(NN=Cc1ccc(N(CCCl)CCCl)cc1)C(=O)c1c[nH]c2ccccc12,active: 4.47 µM
2,COc1cccc(NC(=O)CSc2nc3ccccc3c(=O)n2Cc2cccs2)c1,"inconclusive: 10 µM [inhibitor, partial curve, poor fit]"
3,COc1ccc(-c2cnc(SCC(=O)Nc3cc(C)on3)n2Cc2ccco2)cc1,inactive
4,CCCCOc1ncnc2c1[nH]c1ccccc12,"inconclusive: 2 µM [inhibitor, full curve]"
5,Oc1ccccc1Nc1nc2ccccc2n2nnnc12,inactive
6,CCn1ncc(Br)c1C(=O)Nc1ccc(C(=O)OC(C)C)cc1,"inconclusive: 35.5 µM [inhibitor, single point]"
7,CSc1nnc(C)c(=O)n1COC(=O)COc1ccccc1,"inconclusive: 1 µM [inhibitor, full curve, poor fit]"
8,CCC(=O)Nc1cccc(-c2nc3ccc(C)cc3o2)c1,"inconclusive: 6.31 µM [activator, single point]"
9,CC(NS(=O)(=O)c1ccc(Br)cc1)C(=O)NC1CCCCCC1 (stereo not drawn),inactive
10,O=C(c1ccc2c(=O)n(Cc3ccc4c(c3)OCO4)c(=S)[nH]c2c1)N1CCCCC1,inactive
11,Cc1cccc(/C=N/c2sc3c(c2C(=O)OC(C)(C)C)CCN(C)C3)c1O,"inconclusive: 0.708 µM [inhibitor, full curve, poor fit]"
12,COc1cccc(C(=O)NC(C)c2ccc(-c3ccccc3)cc2)c1OC (stereo not drawn),"inconclusive: 11.2 µM [inhibitor, partial curve, poor fit]"
13,Cc1c(C(=O)NC(C)c2ccncc2)oc2ccccc12 (stereo not drawn),inactive
14,CC1=C(C(=O)Nc2ccccc2)C(c2ccc(O)cc2)N2C(=O)CSC2=N1 (stereo not drawn),"inconclusive: 13 µM [activator, partial curve, poor fit]"
15,CC(C)CN1C(=O)c2ccc(NC(=O)C3CC3)cc2C1=O,inactive
16,CN(C(=O)C1CCOC1)c1nnc(C2CCOC2)s1 (stereo not drawn),"inconclusive: 10 µM [activator, partial curve]"
17,C#CCN1c2ccccc2Sc2cccnc21,inactive
18,Cc1ccccc1C(=O)NCCn1cc(SCC(=O)NCC2CCCO2)c2ccccc21 (stereo not drawn),inactive
19,Cc1csc(NC(=O)[C@@H](NC(=O)c2ccccc2)C(C)C)n1,inactive
20,Cc1nc2cc(NC(=O)Nc3nccs3)ccc2n1C,"inconclusive: 16.4 µM [inhibitor, single point]"
21,O=C(COC(=O)/C=C/c1cc(Br)ccc1F)NC1CC1,"inconclusive: 25.1 µM [activator, single point]"
22,CN(Cc1ccccc1)c1ccc(-c2nc(-c3ccncc3)no2)cc1[N+](=O)[O-],inactive
23,CC(CCc1ccccc1)NC(=O)c1ccc2nc(N3CCOCC3)sc2c1 (stereo not drawn),"inconclusive: 5.62 µM [activator, single point]"
24,O=C(Nc1cccnc1)c1cccc(NC(=O)c2ccco2)c1,inactive
25,Clc1ccc(-c2csc(N/N=C/c3cccnc3)n2)c(Cl)c1,"inconclusive: 2.59 µM [inhibitor, full curve]"

row,Structure (SMILES),Potency
1,CCCCCn1nc(C)c(/C=N/NC(=O)c2ccoc2C)c1C,inactive
2,Cc1nc2sc(-c3ccccc3)cc2c(=O)[nH]1,"inconclusive: 8.2 µM [inhibitor, partial curve, poor fit]"
3,COc1ccccc1C1C(C#N)=C(N)Oc2cc(C)n(Cc3ccccn3)c(=O)c21 (stereo not drawn),"inconclusive: 20.6 µM [activator, partial curve, poor fit]"
4,CCN(CC)C(=O)Nc1ccc(C(=O)OC)cc1,inactive
5,O=C(NCc1ccco1)c1ccc2c(c1)N(Cc1ccc(Cl)cc1)C(=O)c1ccccc1S2(=O)=O,"inconclusive: 1 µM [inhibitor, full curve, poor fit]"
6,Cc1noc2ncnc(Sc3ccc(Br)cc3)c12,"inconclusive: 10 µM [inhibitor, partial curve, poor fit]"
7,Cc1cccc(CSc2cccc3cccnc23)c1,"inconclusive: 35.5 µM [inhibitor, single point]"
8,CCOc1ncccc1C(=O)OCC(=O)NCCc1ccccc1,"inconclusive: 35.5 µM [activator, single point]"
9,COc1ccc(S(=O)(=O)N2CCC(C(=O)N3CCc4ccccc4C3)CC2)cc1,inactive
10,O=C(N/N=C\c1ccccn1)C1c2ccccc2Oc2ccccc21,"inconclusive: 35.5 µM [inhibitor, single point]"
11,CC(C)C(=O)Nc1ccc(-c2nnc(-c3ccccc3)o2)cc1,"inconclusive: 4.47 µM [inhibitor, full curve, poor fit]"
12,O=c1c2oc3ccccc3c2[nH]c(=S)n1-c1ccccc1,inactive
13,COc1ccc2c(c1)CC/C(=C\c1ccc(OC)c(Cn3cccn3)c1)C2=O,"inconclusive: 32.6 µM [inhibitor, single point]"
14,Cc1cc(OCC(=O)NCc2ccc(S(N)(=O)=O)cc2)c2c3c(c(=O)oc2c1)CCC3,"inconclusive: 5.62 µM [activator, full curve, poor fit]"
15,COCCNC(=O)c1cc2nc(-c3ccc(F)cc3)cc(C(F)(F)F)n2n1,"inconclusive: 0.631 µM [inhibitor, full curve, poor fit]"
16,O=C(c1cc(-c2ccncc2)nc2ccccc12)N1CCN(Cc2ccccc2)CC1,active: 7.94 µM
17,COc1ccc(OC)c2sc(N3CCCCC3)nc12,inactive
18,Cc1sc2ncnc(NCc3cccs3)c2c1C,inactive
19,Cc1nc(-c2ccccc2)sc1C(=O)/C=C/c1ccccc1,"inconclusive: 15.8 µM [inhibitor, single point]"
20,Cc1ccc(N(CCC#N)C(=O)COC(=O)c2ccccn2)cc1,"inconclusive: 35.5 µM [activator, single point]"
21,COc1ccc(NC(=O)c2cccnc2Nc2ccc(OC)cc2)cc1,inactive
22,COc1ccccc1CN(Cc1cc2cc(C)ccc2[nH]c1=O)Cc1nnnn1CC1CCCO1 (stereo not drawn),"inactive and inconclusive: 20.6 µM [inhibitor, single point]"
23,O=C(Nc1ccccc1C(=O)O)c1cc(S(=O)(=O)N2CCOCC2)cs1,inactive
24,COCC1CCN(Cc2cn(C)nc2-c2cccc(Cl)c2)C1 (stereo not drawn),"inconclusive: 11.2 µM [inhibitor, partial curve, poor fit]"
25,COc1cccc(/C=N/NC(=O)CCn2nnc3ccccc32)c1,inactive

# Another view of some results above.
row	Structure (SMILES)	Potency
4	CCCCOc1ncnc2c1[nH]c1ccccc12	inconclusive: 2 µM [inhibitor, full curve]
5	Oc1ccccc1Nc1nc2ccccc2n2nnnc12	inactive
6	CCn1ncc(Br)c1C(=O)Nc1ccc(C(=O)OC(C)C)cc1	inconclusive: 35.5 µM [inhibitor, single point]
7	CSc1nnc(C)c(=O)n1COC(=O)COc1ccccc1	inconclusive: 1 µM [inhibitor, full curve, poor fit]
8	CCC(=O)Nc1cccc(-c2nc3ccc(C)cc3o2)c1	inconclusive: 6.31 µM [activator, single point]
9	CC(NS(=O)(=O)c1ccc(Br)cc1)C(=O)NC1CCCCCC1 (stereo not drawn)	inactive
10	O=C(c1ccc2c(=O)n(Cc3ccc4c(c3)OCO4)c(=S)[nH]c2c1)N1CCCCC1	inactive
11	Cc1cccc(/C=N/c2sc3c(c2C(=O)OC(C)(C)C)CCN(C)C3)c1O	inconclusive: 0.708 µM [inhibitor, full curve, poor fit]
12	COc1cccc(C(=O)NC(C)c2ccc(-c3ccccc3)cc2)c1OC (stereo not drawn)	inconclusive: 11.2 µM [inhibitor, partial curve, poor fit]
13	Cc1c(C(=O)NC(C)c2ccncc2)oc2ccccc12 (stereo not drawn)	inactive
14	CC1=C(C(=O)Nc2ccccc2)C(c2ccc(O)cc2)N2C(=O)CSC2=N1 (stereo not drawn)	inconclusive: 13 µM [activator, partial curve, poor fit]
15	CC(C)CN1C(=O)c2ccc(NC(=O)C3CC3)cc2C1=O	inactive
16	CN(C(=O)C1CCOC1)c1nnc(C2CCOC2)s1 (stereo not drawn)	inconclusive: 10 µM [activator, partial curve]
17	C#CCN1c2ccccc2Sc2cccnc21	inactive
18	Cc1ccccc1C(=O)NCCn1cc(SCC(=O)NCC2CCCO2)c2ccccc21 (stereo not drawn)	inactive
19	Cc1csc(NC(=O)[C@@H](NC(=O)c2ccccc2)C(C)C)n1	inactive
20	Cc1nc2cc(NC(=O)Nc3nccs3)ccc2n1C	inconclusive: 16.4 µM [inhibitor, single point]
21	O=C(COC(=O)/C=C/c1cc(Br)ccc1F)NC1CC1	inconclusive: 25.1 µM [activator, single point]

# (more compounds)

row,Structure (SMILES),Potency
1,CCc1ccc(C(=O)C(C)OC(=O)Cc2n[nH]c(=O)c3ccccc23)cc1 (stereo not drawn),"inconclusive: 10 µM [inhibitor, partial curve]"
2,COC(=O)c1cccc(COC(=O)c2cccnc2SC)c1,"inconclusive: 35.5 µM [inhibitor, partial curve, poor fit]"
3,S=c1[nH]nc(-c2cc(-c3ccccc3)n[nH]2)n1/N=C/C(Br)=C/c1ccccc1,"inconclusive: 20 µM [inhibitor, partial curve, poor fit]"
4,CC1CCN(S(=O)(=O)c2ccc3c(c2)oc(=O)n3CC(=O)N2c3ccccc3CC2C)CC1 (stereo not drawn),inactive
5,COc1cc(C(=O)N2CCN(c3ncnc4sc(C)c(C)c34)CC2)cc(OC)c1OC,"inconclusive: 10.3 µM [inhibitor, partial curve, poor fit]"
6,CN(C)c1cccc(C(=O)Nc2cccc(F)c2)c1,"inconclusive: 2.51 µM [activator, partial curve, poor fit]"
7,CCn1c2ccccc2c2cc(N=C3SC(CC(=O)Nc4ccccc4)C(=O)N3C)ccc21 (stereo not drawn),"inconclusive: 0.651 µM [inhibitor, partial curve, poor fit]"
8,CN(C)CCNc1nc2sc3c(c2c(=O)n1-c1ccc(F)cc1)CCCCC3,"inconclusive: 17.8 µM [inhibitor, partial curve, poor fit]"
9,Cc1ccc2nc(N(CCN3CCOCC3)C(=O)CCS(=O)(=O)c3ccccc3)sc2c1,"inconclusive: 2.82 µM [activator, single point]"
10,CN(Cc1cccc2cnccc12)C(=O)c1cc(COc2ccc(F)cc2Cl)on1,inactive
11,COc1ccccc1CCC(=O)NNC(=O)c1ccc(Br)cc1,"inconclusive: 12.6 µM [activator, single point]"
12,CC1=CCC(Cc2nc3ccccc3o2)C1(C)C (stereo not drawn),"inconclusive: 5.8 µM [inhibitor, partial curve, poor fit]"
13,Cc1cc(-c2ccc(Br)cc2)n[nH]1,"inconclusive: 35.5 µM [activator, single point]"
14,CN(C(=S)NC(=O)Cc1ccccc1)c1ccccc1,inactive
15,Cc1csc(N)n1,inactive
16,CCCc1nn(C)c(C(=O)Nc2cccc(Cl)c2)c1Cl,inactive
17,CCOC(=O)c1ccc(S(=O)(=O)NCCNCc2ccccc2)cc1,"inconclusive: 35.5 µM [inhibitor, single point]"
18,Cc1cccc(C(=O)N2CCCC(c3nc(-c4ccc(C)o4)no3)C2)c1 (stereo not drawn),"inconclusive: 4.47 µM [activator, full curve]"
19,Clc1ccc(-c2nnc(-c3cccnc3)o2)cc1,inactive
20,COCCNC(=O)c1ccc(CN2CCc3ccccc3C2)cc1,inactive
21,O=C(O[C@@H]1OC2COC(=O)c3cc(O)c(O)c(O)c3-c3c(cc(O)c(O)c3O)C(=O)O[C@@H]([C@H]1O)[C@@H]2O)c1cc(O)c(O)c(O)c1,"inconclusive: 1.84 µM [inhibitor, full curve, poor fit]"
22,COc1ccc(NC(=O)c2cccnc2N2CCOCC2)cc1,inactive
23,Cc1ccccc1-c1nc(CN2CCCC(C(=O)NCc3cccnc3)C2)c(C)o1 (stereo not drawn),"inconclusive: 0.073 µM [inhibitor, full curve, poor fit]"
